Drawing on publication PMC8042168, “The cell surface hyaluronidase TMEM2 regulates cell adhesion and migration via degradation of hyaluronan at focal adhesion sites” (The Journal of Biological Chemistry, 2021), this text covers binding for one substance.

For this experiment, the target named is T1, mCherry-tagged full-length mouse TMEM2 (transmembrane protein 2) (mouse) (UniProt Q5FWI3).
T1 sequence: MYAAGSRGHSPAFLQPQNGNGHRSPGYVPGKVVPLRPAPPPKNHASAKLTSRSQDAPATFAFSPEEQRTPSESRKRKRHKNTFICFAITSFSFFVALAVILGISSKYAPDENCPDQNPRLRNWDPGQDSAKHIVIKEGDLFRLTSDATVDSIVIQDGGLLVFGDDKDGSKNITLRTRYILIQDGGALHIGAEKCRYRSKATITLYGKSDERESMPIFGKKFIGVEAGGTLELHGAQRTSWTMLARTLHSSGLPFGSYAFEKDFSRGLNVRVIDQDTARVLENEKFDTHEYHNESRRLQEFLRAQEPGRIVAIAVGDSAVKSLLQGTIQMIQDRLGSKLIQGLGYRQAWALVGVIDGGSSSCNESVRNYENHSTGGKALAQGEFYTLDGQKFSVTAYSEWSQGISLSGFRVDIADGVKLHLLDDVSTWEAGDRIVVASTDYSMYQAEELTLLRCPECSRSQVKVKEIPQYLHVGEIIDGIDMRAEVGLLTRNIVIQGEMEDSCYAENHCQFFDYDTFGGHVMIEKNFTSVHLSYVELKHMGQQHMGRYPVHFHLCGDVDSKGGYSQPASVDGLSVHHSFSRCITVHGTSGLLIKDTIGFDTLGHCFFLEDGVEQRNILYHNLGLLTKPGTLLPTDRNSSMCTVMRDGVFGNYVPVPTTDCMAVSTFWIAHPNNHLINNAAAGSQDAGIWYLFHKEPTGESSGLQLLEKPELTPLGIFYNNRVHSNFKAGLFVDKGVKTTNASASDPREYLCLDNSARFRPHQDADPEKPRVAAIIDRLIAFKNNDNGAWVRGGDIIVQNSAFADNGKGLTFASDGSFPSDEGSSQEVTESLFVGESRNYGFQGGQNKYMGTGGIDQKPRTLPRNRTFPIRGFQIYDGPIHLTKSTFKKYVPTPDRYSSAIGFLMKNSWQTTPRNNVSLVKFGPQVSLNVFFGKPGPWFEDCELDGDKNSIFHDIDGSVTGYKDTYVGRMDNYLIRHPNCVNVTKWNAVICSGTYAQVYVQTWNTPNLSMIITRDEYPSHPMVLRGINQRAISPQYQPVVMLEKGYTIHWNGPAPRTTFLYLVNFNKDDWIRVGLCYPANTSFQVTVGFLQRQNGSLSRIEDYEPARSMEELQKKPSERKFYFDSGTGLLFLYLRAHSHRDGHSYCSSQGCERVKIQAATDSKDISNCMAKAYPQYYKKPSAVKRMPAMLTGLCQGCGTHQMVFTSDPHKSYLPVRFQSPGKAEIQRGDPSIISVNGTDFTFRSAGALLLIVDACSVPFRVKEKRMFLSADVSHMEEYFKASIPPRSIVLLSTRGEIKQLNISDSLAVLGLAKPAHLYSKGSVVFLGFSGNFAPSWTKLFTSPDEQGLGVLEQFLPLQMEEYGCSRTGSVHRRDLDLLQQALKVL
Description: cross-linking + co-IP; mCherry-mTMEM2 U2OS cells on fibronectin treated with 1 mM membrane-impermeable DTSSP in HBSS, 30 min RT; RIPA lysate precipitated with RFP-Trap agarose overnight at 4 °C; blots for α5, β1 and mCherry.

Results are given in words; binding and its absence hold for the method and conditions named. In cells and extracts the contact can be indirect. A result given as binding can be weak or reduced; the word gives no strength. Sequences can lack the tags named with a protein.

Turning to “integrin α5β1 (human (endogenous in U2OS)) (receptor)”, the binding result is on record as “binds”.
